These are yes or no findings as the source states them, for the method shown. In cells and extracts the contact can be indirect. Binding calls can cover weak binding; strength is not graded here. Where a sequence is shown, tags or fusion partners need not be part of it.
Target: T1, SnRK2.3 split YFP fusion (Arabidopsis thaliana) (UniProt Q39193)
T1 sequence: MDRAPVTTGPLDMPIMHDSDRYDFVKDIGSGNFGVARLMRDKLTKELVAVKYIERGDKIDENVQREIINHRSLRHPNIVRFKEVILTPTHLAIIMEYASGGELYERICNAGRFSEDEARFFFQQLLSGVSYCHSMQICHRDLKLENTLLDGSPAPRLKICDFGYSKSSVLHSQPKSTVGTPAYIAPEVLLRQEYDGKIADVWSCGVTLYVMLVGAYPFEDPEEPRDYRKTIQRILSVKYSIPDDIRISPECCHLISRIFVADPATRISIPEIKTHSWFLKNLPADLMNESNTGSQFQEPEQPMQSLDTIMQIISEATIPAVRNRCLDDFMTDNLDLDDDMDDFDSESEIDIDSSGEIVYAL
Assay: split reporter; BiFC with nYFP and cYFP fusions in N. benthamiana leaves infiltrated with Agrobacterium (with P19); fluorescence scored 2 to 4 d later

| binding | Substance |
| --- | --- |
| binds | AFP1 A domain split YFP fusion (Arabidopsis thaliana) (domain or fragment) |
| binds | AFP1 B domain split YFP fusion (Arabidopsis thaliana) (domain or fragment) |

Reference: PMC12857203
